Assay results as given in paper PMC11394061.
These are yes or no findings as the source states them, for the method shown. In cells and extracts the contact can be indirect. Some binding calls cover weakened binding; strength is not graded here.

Amino acid sequences for entries named in this document (tags omitted). Residues count along the entry.
UniProt P17948, residues 27-1338: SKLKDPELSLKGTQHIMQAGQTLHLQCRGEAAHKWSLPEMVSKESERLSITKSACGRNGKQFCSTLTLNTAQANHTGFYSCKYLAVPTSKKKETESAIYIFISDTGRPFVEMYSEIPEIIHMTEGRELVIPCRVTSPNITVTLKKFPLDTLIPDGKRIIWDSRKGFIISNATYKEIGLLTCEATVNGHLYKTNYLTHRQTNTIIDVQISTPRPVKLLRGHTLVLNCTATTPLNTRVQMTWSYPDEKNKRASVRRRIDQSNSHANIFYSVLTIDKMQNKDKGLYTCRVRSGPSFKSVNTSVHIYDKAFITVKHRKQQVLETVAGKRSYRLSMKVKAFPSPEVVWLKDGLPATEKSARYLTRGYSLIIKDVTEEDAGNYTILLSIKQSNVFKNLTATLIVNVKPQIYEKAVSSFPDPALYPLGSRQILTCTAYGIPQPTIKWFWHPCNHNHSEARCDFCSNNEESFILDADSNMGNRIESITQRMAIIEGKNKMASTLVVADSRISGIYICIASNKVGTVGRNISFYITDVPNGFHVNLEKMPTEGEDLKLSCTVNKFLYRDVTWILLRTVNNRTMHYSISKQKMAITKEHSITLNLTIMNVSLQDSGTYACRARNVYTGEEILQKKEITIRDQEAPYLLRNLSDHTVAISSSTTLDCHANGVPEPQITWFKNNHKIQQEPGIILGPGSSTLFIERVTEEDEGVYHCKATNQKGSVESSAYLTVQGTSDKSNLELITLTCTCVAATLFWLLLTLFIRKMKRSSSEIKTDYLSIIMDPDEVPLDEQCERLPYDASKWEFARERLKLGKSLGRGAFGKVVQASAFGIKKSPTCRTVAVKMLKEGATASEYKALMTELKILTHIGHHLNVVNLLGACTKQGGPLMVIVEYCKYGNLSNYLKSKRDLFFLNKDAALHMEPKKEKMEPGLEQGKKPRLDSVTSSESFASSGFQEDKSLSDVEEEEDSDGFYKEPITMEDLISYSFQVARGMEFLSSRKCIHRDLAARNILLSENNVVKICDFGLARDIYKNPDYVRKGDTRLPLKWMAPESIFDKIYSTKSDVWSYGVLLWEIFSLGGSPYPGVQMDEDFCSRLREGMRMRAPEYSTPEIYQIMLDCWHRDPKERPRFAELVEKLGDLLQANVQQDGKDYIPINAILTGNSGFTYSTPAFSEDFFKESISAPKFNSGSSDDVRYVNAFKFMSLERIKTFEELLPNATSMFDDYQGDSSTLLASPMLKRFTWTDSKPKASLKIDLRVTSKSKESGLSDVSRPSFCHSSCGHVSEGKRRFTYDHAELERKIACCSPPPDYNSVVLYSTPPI
UniProt P21802, residues 22-821: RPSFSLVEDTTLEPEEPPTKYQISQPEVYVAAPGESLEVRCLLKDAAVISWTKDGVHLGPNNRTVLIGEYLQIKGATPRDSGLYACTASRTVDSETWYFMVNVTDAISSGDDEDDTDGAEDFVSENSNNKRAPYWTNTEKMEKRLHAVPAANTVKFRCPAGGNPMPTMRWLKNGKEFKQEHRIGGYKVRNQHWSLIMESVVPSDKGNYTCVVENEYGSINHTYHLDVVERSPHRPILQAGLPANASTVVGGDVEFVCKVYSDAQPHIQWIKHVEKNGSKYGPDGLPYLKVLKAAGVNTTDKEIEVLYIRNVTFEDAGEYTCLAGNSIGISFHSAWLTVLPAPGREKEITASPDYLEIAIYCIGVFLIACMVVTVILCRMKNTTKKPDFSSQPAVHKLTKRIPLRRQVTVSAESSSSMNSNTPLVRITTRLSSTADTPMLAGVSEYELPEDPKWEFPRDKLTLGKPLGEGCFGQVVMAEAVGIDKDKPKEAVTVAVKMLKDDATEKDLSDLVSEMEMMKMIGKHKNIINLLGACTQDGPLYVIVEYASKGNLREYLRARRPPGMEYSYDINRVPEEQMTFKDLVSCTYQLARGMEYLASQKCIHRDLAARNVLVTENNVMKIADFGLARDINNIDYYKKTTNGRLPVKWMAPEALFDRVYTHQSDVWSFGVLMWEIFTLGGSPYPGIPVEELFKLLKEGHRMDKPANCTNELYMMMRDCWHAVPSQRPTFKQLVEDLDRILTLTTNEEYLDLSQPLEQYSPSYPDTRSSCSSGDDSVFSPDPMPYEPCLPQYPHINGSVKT
UniProt P11362, residues 22-822: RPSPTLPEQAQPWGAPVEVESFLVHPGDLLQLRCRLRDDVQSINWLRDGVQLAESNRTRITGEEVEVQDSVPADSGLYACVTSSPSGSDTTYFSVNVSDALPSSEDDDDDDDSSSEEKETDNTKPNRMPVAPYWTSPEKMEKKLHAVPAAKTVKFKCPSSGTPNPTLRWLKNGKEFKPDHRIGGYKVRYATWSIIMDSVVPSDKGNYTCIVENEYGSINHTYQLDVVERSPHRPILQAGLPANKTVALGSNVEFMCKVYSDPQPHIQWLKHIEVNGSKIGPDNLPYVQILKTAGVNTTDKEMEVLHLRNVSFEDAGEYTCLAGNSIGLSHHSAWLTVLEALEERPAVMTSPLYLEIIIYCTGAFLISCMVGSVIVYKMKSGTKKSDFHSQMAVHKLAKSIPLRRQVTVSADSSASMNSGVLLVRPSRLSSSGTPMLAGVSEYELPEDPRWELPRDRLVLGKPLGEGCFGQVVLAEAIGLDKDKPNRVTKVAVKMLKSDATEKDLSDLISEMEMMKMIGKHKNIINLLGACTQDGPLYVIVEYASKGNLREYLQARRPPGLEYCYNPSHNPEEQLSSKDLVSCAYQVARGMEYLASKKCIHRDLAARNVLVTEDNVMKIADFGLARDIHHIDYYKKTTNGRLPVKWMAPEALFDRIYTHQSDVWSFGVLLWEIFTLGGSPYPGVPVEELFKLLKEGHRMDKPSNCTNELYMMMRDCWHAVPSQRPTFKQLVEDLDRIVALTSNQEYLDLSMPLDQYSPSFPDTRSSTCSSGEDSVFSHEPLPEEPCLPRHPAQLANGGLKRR

Legend:
[1] = biological target: VEGFR1 (human (endogenous in GIST T-1R and GIST 430)) (UniProt P17948); test: co-IP; GIST 430 whole cell lysate in TEB buffer (50 mM Tris-HCl pH 7.5, 150 mM NaCl, 1% NP-40, 10% glycerol); endogenous VEGFR1 precipitated with anti-VEGFR1 antibody overnight at +4 °C, protein A and G Sepharose beads; blot for FGFR1 or FGFR2
[2] = biological target: VEGFR1 (human (endogenous in GIST T-1R and GIST 430)) (UniProt P17948); test: co-IP; GIST T-1R whole cell lysate in TEB buffer (50 mM Tris-HCl pH 7.5, 150 mM NaCl, 1% NP-40, 10% glycerol); endogenous VEGFR1 precipitated with anti-VEGFR1 antibody overnight at +4 °C, protein A and G Sepharose beads; blot for FGFR1 or FGFR2

Substance | binding [1] | binding [2]
FGFR2 (from UniProt P21802 22-821) (receptor) | no binding (condition: in GIST 430 cells) | binds
FGFR1 (from UniProt P11362 22-822) (receptor) | no binding (condition: in GIST 430 cells) | binds
